# Library screen at single concentrations

A: 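Whole-parasite assay of Trypanosoma brucei over 72 hours; the read-out is not stated. Concentration: 30 µM. Direction is inferred from retests: higher values go with stronger inhibition. Values scatter widely below zero; nearly all retest evidence comes from the higher of the two concentrations used. Size under these conditions: about 64,000 compounds, about 940 of them at 50% or above in at least one test.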
B: 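Assay of Toxoplasma gondii numbers, read through their beta-galactosidase reporter with a colour substrate. Tested at 10 µM. The record gives no direction; the compounds picked for IC50 retests had high values, so higher reads as fewer parasites. About 67,000 compounds were tested under these conditions; 0.38% (about 260) showed 50% or more at least once.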

Results are given as percent effect. How 0% and 100% were set is not recorded. Most values in the screen are low, and negative values occur. Compounds were drawn at random from those tested, without regard to their results. A dash means the value is not listed here; it may have been measured.

| SMILES | A | B |
|---|---|---|
| `[H][C@@]12C[C@@H](c3nnc(C)[nH]3)O[C@]1([H])CN(C(=O)c1sccc1C)C2` | -67.53 | 1.672 |
| `CCn1nc(C)c(NC(=O)CN(C)C(C)c2ccon2)c1C` (stereo not given) | -0.1975 | 10.13 |
| `COC(=O)CCC(=O)N1CCCC2(CCCN2Cc2cccc(F)c2)C1.O=C(O)C(F)(F)F` (stereo not given) | -84.59 | -13.27 |
| `CCC(CC)(CC)NC(=O)Nc1nnc(-c2ccccn2)s1` | 5.215 | -5.177 |
| `Cc1nc(C2CCN(C(=O)c3cscn3)CC2)c2sccn12` | 4.043 | -23 |
| `O=C(O)C(F)(F)F.[H][C@@]12CN(C(=O)[C@H]3CCCO3)C[C@]1([H])C(=O)N(Cc1csc(C)n1)C2` | -15.73 | 0.8515 |
| `CCOC(=O)N[C@H]1C[C@@H](C(=O)NCCc2cccc(Cl)c2)N(C)C1` | -25.03 | 10.94 |
| `Cn1c(NCC(O)c2ccc(F)c(F)c2)c(C#N)c(=O)n(C)c1=O` (stereo not given) | - | -4.203 |
| `O=C(c1ncccn1)N1CCC[C@]2(C[C@@H](OCC3CC3)CO2)C1` | -142.6 | -28.98 |
| `CC(=O)N1CCN(Cn2nc(-c3ccc(F)cc3)oc2=O)CC1` | -1.858 | -1.059 |
| `CCN(CC)CCSc1nnc(N2CCN(c3ccccc3)CC2)s1` | -31.64 | -10.61 |
| `CC(CNCc1ccc(Br)cc1)Oc1ccccn1.Cl` (stereo not given) | -11.01 | -0.3195 |
| `O=S1(=O)N(c2ccccc2)C[C@@H](O)[C@]12CCNC2` | 29.76 | 1.566 |
| `COCCN(C)C(C(=O)O)c1ccc(Cl)c(F)c1` (stereo not given) | -25.24 | 5.621 |
| `CC1CCCN(C(=O)NCCCn2cncn2)C1` (stereo not given) | 8.924 | -10.32 |
| `COCCNc1ccc(CNC(=O)Nc2cn[nH]c2)cc1` | -38.25 | - |
| `CS(=O)(=O)c1ccc(NC(=O)CSc2ccc3c(c2)CCC3)cn1` | -21.55 | 12.06 |
| `COc1ccc2oc(C(C)NC(=O)NCc3noc(C)n3)c(C)c2c1` (stereo not given) | -1.099 | -20.1 |
| `CN(Cc1cn2ccccc2c1C#N)C1CCCN(c2cccnn2)C1` (stereo not given) | 7.877 | 5.117 |
| `N#Cc1ccc(OCC(O)CN2CCC(Cn3cccn3)CC2)cc1` (stereo not given) | - | 1.569 |
| `CSCC(C)(O)CNc1cccc(F)c1C#N` (stereo not given) | -48.83 | -24.23 |
| `CCOCCn1c(=O)n(CCC(C)C)c2ncc(C(=O)O)cc21` | -21.71 | -7.452 |
| `Cc1noc(CN(Cc2ccc3c(c2)OCO3)C2CCCC2)n1` | -45.32 | 3.733 |
| `CCc1ccc(CN(Cc2ccccc2)CC(C)CO)nc1` (stereo not given) | 16.2 | 8.826 |
| `CC(C)CS(=O)(=O)N1CCC2(CN(c3ccsc3)C(=O)CN2C)C1.O=C(O)C(F)(F)F` (stereo not given) | -44.48 | 1.134 |
| `CCC(C)C(=O)NCc1cc(Br)c(OC)c(OC)c1` (stereo not given) | -14.56 | -7.647 |
| `CS(=O)(=O)NC(=O)c1cnc2c(cnn2C2CCCC2)c1` | -25.86 | -14.23 |
| `CN(C)CC1CN(Cc2ccsc2)Cc2nccn2C1.O=C(O)C(F)(F)F.O=C(O)C(F)(F)F` (stereo not given) | 6.198 | -12.32 |
| `Cc1nn(C)c(C)c1CC(=O)N1CCCC(CNS(C)(=O)=O)C1` (stereo not given) | -34.67 | 14.15 |
| `Cc1ccc(OCC(=O)Nc2cc(C(=O)O)cc(S(C)(=O)=O)c2)cc1C` | 2.076 | -8.171 |
| `[H][C@]12CC[C@]([H])(CN(Cc3ccccc3SC)C1)N(CC1CC1)C2=O` | -15.59 | 3.974 |
| `COc1ccc(CN2CCOC[C@H](Oc3cccnc3)C2)cc1` | -10.25 | 0.02579 |
| `CC(C)NC(=O)CC1COC2(CCN(Cc3ccco3)CC2)C1` (stereo not given) | -14.26 | -11.14 |
| `N#CCCSc1nnc(Cc2ccccc2F)o1` | -12.49 | -10.24 |
| `Clc1cccc(Cl)c1CNCCOc1ccccn1` | 5.89 | 16.17 |
| `CN(CCCc1nccn1C)C(=O)C1CCN(C(=O)C2CC2)CC1` | -12.32 | 3.81 |
| `CCn1ccc(-c2cc(NCCCOc3cccc(C)c3)nc(C)n2)n1` | - | -5.685 |
| `CC(=O)c1cccc(OCCCC(=O)N(C)Cc2cscn2)c1` | -104.6 | -0.2528 |
| `CCOCc1ccc(NCc2cnc(N3CCN(C)CC3)nc2)cc1` | 17.18 | 1.438 |
| `Cc1ccccc1CN1CCN(c2ncnc3c2NC(=O)CN3)CC1` | -42.25 | -30.21 |
| `CCn1c(=O)c2sccc2n(CC(=O)Nc2cccc(Cl)c2)c1=O` | - | 36.93 |
| `N#CC1(C(=O)NCCCNc2ccc(C(F)(F)F)cn2)CCCC1` | 104.7 | -17.08 |
| `Cc1noc(C)c1CN1CCN(Cc2nccn2C)C(C)C1` (stereo not given) | -44.75 | - |
| `O=C(O)c1ccccc1-n1cc(CN2CCOC(c3cc[nH]n3)C2)cn1` (stereo not given) | -2.618 | 13.21 |
| `COc1cccc(CN2CCC(Cc3cnc(CN(C)C)cn3)CC2)c1` | 11.03 | 19.14 |
| `O=C(NCCn1cnc(C2CCCC2)cc1=O)NCc1cccs1` | 11.33 | 56.76 |
| `CCCN(Cc1ccccc1O)C(=O)Nc1cnn(CCOC)c1` | -41.94 | -2.026 |
| `CN(C)CCCNC(=O)c1nnsc1-c1ccccc1` | 5.959 | -19.77 |
| `CCCNC(=O)CN1CCN(Cc2csc(C(C)(C)C)n2)CC1` | -41.96 | - |
| `O=C(O)C(F)(F)F.O=C(O)C(F)(F)F.O=C(O)C(F)(F)F.[H][C@]12C[C@@H](CN(C)C)N(C(C)C)[C@@]1([H])CCN(c1ncc(F)cn1)C2` | - | -12.59 |
| `CN(CC(F)(F)F)C(=O)CNC(=O)N1CCCC(N(C)C)C1` (stereo not given) | -25.45 | -2.023 |
| `O=C1CC(c2ccco2)c2sc(C(=O)O)c(-c3ccccc3)c2N1` (stereo not given) | 34.63 | -8.762 |
| `Cc1n[nH]c(C)c1CNC(=O)NC1CCCN(c2ccccc2F)C1` (stereo not given) | -17.61 | 0.5907 |
| `CCc1nc(C(=O)N2CC(C)CN(C)c3ccccc32)c[nH]1` (stereo not given) | 10.87 | -16.52 |
| `CNC(=O)NC(C)c1nc(-c2ccccc2)c[nH]1` (stereo not given) | -21.52 | -0.7392 |
| `Cc1cc(C)n(CC2CCCN2CC(=O)N(C)C)n1` (stereo not given) | -44.56 | -1.551 |
| `CCC(C(=O)NCc1ccn(-c2ccc(F)cc2)n1)N1CCCC1=O` (stereo not given) | -33.16 | -7.343 |
| `CN(C)CCOCc1nnc2n1CCN(Cc1ccco1)CC2.O=C(O)C(F)(F)F.O=C(O)C(F)(F)F` | -5.145 | 6.231 |
| `Cc1csc(N2CCN(C3CCc4ccccc4C3)CC2)n1` (stereo not given) | -17.35 | 1.274 |
| `Cc1ccc(N2CCC3(CC2)CCN(C2CCOC2)CC3)nn1.O=C(O)C(F)(F)F` (stereo not given) | - | -12.33 |
| `Cc1noc(C(C)C)c1C(=O)NCCN1CCCCCC1=O` | 7.735 | 17.58 |
| `O=C(CC1CC1)NC1CCc2c(ccc(=O)n2CC2CC2)C1` (stereo not given) | - | -15.9 |
| `CN(C)c1nc2c(c(=O)[nH]1)CCN(C(=O)c1c[nH]c(=O)c(Cl)c1)C2` | 5.18 | 11.53 |
| `Cc1ccc(CNC(=O)C2CCN(C(=O)C(C)C)CC2)n1C` | -14.14 | -12.14 |
| `CC1CCCCN1C(=O)CCn1cnc2sccc2c1=O` (stereo not given) | -29.63 | -8.085 |
| `CC(Nc1nccc(CCC(F)(F)F)n1)c1nc(-c2ccccn2)no1` (stereo not given) | -22.59 | -25.69 |
| `Cc1nc(C)n(CC2CCCN2CC(=O)Nc2nncs2)n1` (stereo not given) | -5.521 | 4.299 |
| `Cc1nc(CCC(=O)NC2CCC2)cc(C2CCNCC2)n1` | -8.455 | -0.6101 |
| `Cn1cnc2c1CCN(Cc1ccc(C(=O)N3CCCC3)cc1)C2` | -14.01 | 7.444 |
| `CCCN(Cc1nnnn1C1CC1)CC1COc2ccccc2O1` (stereo not given) | 30.99 | 0 |
| `CN(C)S(=O)(=O)NCc1cccnc1Oc1ccccc1` | 5.956 | -1.095 |
| `CCC(NC(=O)NC1CCN(S(C)(=O)=O)CC1)c1cccs1` (stereo not given) | -17.86 | -8.625 |
| `Cc1nn(C)c(C)c1CC(=O)NCc1ccnc(N2CCOCC2)c1` | -9.332 | 4.217 |
| `CCc1nnc2n1CC(CNCc1nc(C)c(C)o1)CC2` (stereo not given) | 0.5038 | 0.3409 |
| `CC(C(=O)NCc1ccc(N2CCCCC2)nc1)n1cncn1` (stereo not given) | -17.53 | -19.15 |
| `CC(CN1CCOCC1)NC(=O)Nc1cccnc1-n1cccn1` (stereo not given) | - | -19.15 |
| `CCn1ccnc1CNC1CC(=O)N(CCc2cccc(Cl)c2)C1` (stereo not given) | -7.928 | -29.91 |
| `CCn1nc(C)c(CCn2ccnc2-c2cc3n(n2)CCCNC3)c1C` | -9.883 | -1.432 |
| `[H][C@@]12CCN(CCOCc3ccccc3)[C@]1([H])CC[C@@H](C(=O)NCC1CC1)O2` | -28.45 | -15.27 |
| `Cc1ccccc1C1(C(=O)NCCN2CCCC2)CCOCC1` | -12.93 | 1.091 |
| `COCCN(C)C[C@@H]1CN(C(=O)C(C)(C)c2ccccc2)C[C@@H]1CO` | -31.79 | 12.64 |
| `O=C(CCc1nc(C2CC2)no1)c1ccc2c(c1)OCCO2` | -22.37 | -1.576 |
| `CC(C)(C)c1ncc(C(=O)NCCNS(C)(=O)=O)s1` | -7.915 | -6.636 |
| `Cc1noc(C)c1CNC(=O)c1ccc(NC2CC2)nc1` | 26.76 | -3.453 |

Some entries from above, unchanged:

SMILES,A,B
Cn1cnc2c1CCN(Cc1ccc(C(=O)N3CCCC3)cc1)C2,-14.01,7.444
COCCNc1ccc(CNC(=O)Nc2cn[nH]c2)cc1,-38.25,-
Cc1nc(CCC(=O)NC2CCC2)cc(C2CCNCC2)n1,-8.455,-0.6101
CCn1ccc(-c2cc(NCCCOc3cccc(C)c3)nc(C)n2)n1,-,-5.685
CN(C)CC1CN(Cc2ccsc2)Cc2nccn2C1.O=C(O)C(F)(F)F.O=C(O)C(F)(F)F (stereo not given),6.198,-12.32
CN(C)CCOCc1nnc2n1CCN(Cc1ccco1)CC2.O=C(O)C(F)(F)F.O=C(O)C(F)(F)F,-5.145,6.231

From ChEMBL document CHEMBL3988442, “University of Dundee, Small-Polar-MMV Screening Library” (2021).